Data from paper doi:10.1101/2024.12.21.629933.
These are yes or no findings as the source states them, for the method shown. In cells and extracts the contact can be indirect. Some binding calls cover weakened binding; strength is not graded here.

Target: Epidermal growth factor receptor (EGFR), endogenous in A549 cells (human (endogenous in A549)) (UniProt P00533)
Experiment: proximity ligation

tyrosine-protein phosphatase transmembrane receptor PTPRF (from UniProt P10586 30-1907)
binding: binds
